40 targets from the supplement of paper PMC10849652 can be followed below.

Protein sequences, listed by entry. Tags and fused reporters are not part of them. Lines headed by an entry give the natural chain unless they say otherwise; changes in a name come on top.
UniProt Q7Z2T5: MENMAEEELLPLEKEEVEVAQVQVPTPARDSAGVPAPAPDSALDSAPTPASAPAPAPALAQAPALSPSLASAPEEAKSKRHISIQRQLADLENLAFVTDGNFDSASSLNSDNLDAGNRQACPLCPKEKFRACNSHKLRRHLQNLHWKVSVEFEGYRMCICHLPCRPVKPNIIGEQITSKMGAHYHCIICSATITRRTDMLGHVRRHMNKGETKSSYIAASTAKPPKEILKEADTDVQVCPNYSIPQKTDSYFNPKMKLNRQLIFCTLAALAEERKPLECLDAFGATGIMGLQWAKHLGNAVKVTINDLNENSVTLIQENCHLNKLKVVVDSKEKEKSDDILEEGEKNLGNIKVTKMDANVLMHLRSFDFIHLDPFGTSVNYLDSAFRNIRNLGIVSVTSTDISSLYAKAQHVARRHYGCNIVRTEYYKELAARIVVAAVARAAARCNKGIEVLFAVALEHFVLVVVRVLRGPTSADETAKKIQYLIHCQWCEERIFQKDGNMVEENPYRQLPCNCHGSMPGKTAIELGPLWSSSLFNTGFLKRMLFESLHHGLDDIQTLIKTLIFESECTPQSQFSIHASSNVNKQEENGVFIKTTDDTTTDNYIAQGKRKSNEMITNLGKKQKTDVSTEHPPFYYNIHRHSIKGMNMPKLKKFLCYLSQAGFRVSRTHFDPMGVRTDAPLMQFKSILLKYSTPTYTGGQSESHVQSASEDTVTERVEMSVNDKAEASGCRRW
UniProt Q5R3I4: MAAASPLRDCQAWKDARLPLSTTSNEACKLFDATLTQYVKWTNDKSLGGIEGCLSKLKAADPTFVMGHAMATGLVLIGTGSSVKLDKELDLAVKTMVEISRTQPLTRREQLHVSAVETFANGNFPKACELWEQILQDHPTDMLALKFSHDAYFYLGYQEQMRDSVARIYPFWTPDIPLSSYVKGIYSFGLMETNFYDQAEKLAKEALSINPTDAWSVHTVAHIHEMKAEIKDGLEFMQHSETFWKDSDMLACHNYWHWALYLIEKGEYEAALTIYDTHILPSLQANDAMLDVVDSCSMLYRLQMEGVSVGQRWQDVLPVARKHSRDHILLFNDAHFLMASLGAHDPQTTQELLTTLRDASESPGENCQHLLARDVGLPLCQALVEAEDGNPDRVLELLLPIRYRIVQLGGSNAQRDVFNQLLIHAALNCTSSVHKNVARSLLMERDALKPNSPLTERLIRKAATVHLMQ
UniProt Q969E8: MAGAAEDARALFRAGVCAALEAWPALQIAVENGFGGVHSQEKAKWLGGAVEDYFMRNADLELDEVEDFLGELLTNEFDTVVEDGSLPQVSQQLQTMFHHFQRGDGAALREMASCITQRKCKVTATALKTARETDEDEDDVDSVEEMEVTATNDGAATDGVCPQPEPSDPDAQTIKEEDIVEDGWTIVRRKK
UniProt Q8NG06: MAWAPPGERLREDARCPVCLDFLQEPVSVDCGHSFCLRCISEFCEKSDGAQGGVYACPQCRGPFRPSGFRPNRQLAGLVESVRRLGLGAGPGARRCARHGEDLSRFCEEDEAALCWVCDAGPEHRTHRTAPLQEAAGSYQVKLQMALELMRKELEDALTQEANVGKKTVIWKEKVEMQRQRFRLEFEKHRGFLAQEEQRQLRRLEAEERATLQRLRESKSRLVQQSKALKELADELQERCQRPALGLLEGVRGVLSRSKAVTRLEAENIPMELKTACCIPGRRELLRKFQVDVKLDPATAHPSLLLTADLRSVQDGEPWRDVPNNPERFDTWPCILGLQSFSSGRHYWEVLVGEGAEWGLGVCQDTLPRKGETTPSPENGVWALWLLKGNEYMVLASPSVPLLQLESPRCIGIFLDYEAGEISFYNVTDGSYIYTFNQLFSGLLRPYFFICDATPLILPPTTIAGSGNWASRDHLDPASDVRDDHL
UniProt O95801: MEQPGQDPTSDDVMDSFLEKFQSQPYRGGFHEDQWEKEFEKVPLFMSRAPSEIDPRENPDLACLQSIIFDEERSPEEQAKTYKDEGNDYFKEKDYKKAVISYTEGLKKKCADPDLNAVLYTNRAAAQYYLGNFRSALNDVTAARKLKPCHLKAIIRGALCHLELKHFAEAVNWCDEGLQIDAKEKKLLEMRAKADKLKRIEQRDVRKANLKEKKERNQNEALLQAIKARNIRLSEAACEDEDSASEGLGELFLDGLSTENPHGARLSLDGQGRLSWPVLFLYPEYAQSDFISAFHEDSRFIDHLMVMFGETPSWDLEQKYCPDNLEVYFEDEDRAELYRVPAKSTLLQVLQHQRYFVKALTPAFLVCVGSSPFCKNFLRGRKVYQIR
UniProt Q9BRZ2: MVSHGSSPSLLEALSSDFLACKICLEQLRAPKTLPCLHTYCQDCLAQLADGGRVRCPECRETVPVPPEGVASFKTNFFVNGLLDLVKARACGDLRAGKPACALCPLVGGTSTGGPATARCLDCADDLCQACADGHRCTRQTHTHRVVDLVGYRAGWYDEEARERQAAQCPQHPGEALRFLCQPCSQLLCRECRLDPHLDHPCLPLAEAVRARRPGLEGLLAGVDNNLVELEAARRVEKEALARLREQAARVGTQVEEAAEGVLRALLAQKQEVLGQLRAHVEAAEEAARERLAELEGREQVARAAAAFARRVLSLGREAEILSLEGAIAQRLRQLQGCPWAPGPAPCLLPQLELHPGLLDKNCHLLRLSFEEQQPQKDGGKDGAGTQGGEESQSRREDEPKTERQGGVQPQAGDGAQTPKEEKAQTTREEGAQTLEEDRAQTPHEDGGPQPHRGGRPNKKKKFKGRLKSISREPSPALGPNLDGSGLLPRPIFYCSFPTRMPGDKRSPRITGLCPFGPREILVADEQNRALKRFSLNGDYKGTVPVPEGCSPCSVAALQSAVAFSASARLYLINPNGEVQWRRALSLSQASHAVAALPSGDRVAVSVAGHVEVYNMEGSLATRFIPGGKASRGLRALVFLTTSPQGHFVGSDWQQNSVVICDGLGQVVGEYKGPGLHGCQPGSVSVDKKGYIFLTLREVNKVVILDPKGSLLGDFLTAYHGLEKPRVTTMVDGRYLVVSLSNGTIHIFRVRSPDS
UniProt O43715: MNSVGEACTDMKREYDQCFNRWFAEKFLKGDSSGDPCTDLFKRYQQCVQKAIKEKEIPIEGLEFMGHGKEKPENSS
UniProt O75157: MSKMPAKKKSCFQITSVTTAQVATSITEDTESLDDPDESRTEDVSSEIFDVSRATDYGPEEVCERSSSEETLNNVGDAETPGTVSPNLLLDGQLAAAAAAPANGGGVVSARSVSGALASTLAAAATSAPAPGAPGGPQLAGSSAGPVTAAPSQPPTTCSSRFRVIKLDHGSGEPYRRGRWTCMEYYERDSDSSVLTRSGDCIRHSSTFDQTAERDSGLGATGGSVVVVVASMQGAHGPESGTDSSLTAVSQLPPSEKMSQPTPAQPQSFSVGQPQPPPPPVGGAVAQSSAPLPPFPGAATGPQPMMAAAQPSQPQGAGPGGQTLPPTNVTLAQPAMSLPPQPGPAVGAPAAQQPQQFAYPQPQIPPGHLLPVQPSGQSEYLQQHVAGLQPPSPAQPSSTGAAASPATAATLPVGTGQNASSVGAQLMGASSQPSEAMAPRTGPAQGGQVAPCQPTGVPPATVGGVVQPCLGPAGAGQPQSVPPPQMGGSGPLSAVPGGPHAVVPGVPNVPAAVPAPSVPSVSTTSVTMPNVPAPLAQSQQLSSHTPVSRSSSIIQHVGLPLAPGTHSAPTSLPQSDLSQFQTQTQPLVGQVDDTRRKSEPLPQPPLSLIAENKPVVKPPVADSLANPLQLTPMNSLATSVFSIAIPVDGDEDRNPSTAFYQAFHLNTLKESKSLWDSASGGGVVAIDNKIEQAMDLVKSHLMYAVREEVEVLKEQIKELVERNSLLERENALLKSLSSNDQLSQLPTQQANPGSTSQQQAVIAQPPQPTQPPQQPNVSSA
UniProt Q86SZ2: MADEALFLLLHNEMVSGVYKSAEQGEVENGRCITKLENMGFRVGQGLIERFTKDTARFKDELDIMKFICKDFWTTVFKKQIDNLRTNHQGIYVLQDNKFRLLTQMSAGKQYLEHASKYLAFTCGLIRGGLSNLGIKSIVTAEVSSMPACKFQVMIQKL
UniProt Q6NXR4: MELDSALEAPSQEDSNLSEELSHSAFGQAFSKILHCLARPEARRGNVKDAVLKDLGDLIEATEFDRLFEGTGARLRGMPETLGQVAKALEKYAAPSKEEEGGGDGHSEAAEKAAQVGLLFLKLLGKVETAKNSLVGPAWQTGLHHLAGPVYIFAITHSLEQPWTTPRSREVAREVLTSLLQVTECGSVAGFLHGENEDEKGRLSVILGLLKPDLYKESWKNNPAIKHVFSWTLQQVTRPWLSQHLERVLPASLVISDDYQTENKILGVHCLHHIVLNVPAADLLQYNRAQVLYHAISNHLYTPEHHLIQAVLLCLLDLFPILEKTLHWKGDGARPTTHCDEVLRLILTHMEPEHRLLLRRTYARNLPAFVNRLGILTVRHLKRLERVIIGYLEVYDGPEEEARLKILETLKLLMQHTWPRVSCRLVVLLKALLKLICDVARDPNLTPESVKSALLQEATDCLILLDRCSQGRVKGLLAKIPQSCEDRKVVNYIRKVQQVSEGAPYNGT
UniProt Q8WVT3: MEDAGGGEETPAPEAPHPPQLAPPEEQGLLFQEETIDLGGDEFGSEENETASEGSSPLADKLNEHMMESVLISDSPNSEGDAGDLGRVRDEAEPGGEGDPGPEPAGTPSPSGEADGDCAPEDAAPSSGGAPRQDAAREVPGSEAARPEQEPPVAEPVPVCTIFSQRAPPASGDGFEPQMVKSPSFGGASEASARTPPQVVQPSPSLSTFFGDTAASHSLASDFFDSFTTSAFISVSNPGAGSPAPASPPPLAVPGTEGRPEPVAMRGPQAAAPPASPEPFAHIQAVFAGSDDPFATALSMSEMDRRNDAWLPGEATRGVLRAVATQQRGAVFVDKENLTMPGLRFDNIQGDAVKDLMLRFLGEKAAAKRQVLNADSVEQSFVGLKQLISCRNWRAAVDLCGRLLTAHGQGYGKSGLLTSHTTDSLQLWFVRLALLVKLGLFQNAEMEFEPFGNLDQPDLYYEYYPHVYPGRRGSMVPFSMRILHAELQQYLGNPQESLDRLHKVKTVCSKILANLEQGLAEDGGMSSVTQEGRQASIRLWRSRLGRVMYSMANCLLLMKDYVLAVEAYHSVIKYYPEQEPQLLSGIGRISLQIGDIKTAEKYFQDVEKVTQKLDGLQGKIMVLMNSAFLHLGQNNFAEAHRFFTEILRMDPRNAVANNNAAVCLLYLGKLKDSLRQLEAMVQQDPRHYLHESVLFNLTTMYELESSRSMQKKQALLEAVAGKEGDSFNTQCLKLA
UniProt P19474, whole entry, looked up: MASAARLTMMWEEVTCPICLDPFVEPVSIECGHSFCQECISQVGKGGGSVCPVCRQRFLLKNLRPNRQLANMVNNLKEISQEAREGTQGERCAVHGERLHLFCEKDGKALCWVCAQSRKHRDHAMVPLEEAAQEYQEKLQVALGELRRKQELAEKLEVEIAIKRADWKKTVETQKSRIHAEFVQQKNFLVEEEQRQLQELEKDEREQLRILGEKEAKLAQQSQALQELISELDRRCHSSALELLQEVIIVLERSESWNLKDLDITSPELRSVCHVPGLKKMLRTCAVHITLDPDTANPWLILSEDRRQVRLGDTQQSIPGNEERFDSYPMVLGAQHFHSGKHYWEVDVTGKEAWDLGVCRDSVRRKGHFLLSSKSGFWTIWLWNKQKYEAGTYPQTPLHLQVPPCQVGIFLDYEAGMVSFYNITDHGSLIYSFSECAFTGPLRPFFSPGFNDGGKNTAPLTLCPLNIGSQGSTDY
UniProt A5PLN9: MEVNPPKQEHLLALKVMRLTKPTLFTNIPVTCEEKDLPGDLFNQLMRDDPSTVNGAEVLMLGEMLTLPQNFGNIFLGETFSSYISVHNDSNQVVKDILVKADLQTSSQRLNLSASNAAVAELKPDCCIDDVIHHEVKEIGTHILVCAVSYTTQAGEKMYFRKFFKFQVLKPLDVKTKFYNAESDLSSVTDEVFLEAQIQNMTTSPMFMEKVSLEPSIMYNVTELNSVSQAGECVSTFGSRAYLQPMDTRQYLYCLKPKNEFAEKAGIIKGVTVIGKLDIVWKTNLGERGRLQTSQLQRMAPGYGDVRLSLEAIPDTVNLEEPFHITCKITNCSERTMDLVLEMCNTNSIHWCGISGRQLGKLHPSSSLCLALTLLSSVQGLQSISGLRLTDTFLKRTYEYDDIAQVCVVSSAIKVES
UniProt Q9NX07: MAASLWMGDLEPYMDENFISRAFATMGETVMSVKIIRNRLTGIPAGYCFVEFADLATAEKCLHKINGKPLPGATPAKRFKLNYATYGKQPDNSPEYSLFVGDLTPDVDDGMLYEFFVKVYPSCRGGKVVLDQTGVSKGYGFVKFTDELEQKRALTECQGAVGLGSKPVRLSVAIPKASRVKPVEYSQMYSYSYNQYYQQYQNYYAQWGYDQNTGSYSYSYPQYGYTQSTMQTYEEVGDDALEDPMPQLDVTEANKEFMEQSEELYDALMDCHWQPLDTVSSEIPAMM

The other results are listed elsewhere or left out.

Compound in one assay: Cc1cn(-c2cc(NC(=O)c3ccc(C)c(Nc4nccc(-c5cccnc5)n4)c3)cc(C(F)(F)F)c2)cn1 [nilotinib]
In words: log2 fold change, soluble protein after heating vs DMSO (PISA); higher = thermal stabilisation; K562 lysate, 10 uM; active = over 0.2 and 3.5 SD of the protein, either way, in both replicates (recomputed). The method, boiled down:
(§1)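 Soluble protein was defined as the supernatant remaining after 21,000xg for 90 min, following pooling of heated aliquots and adjustment to 0.5% NP-40 at 4°C. Before that, crude K562 extract at 1 mg/mL protein in PBS pH 7.4 with 1 mM MgCl2 was treated with 10 μM compound for 30 min and heated for 3 min across 48°C-58°C. Quantification used TMTpro 16plex LC-MS/MS with channel sums equalised, and values are log-two fold changes in thermal stability relative to solvent controls from duplicates.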
Turning to TRIM32 (UniProt Q13049), the log2 fold change is inactive: 0.019.

For TRIM28 (UniProt Q13263), the log2 fold change was inactive: 0.02.

On to TST (UniProt Q16762), for which the log2 fold change was inactive: 0.036.

Consider TRMT1L (UniProt Q7Z2T5), for which the log2 fold change was inactive: -0.017.

In the case of TRUB1 (UniProt Q8WWH5), the log2 fold change is inactive: -0.008.

Turning to TTC37 (UniProt Q6PGP7), the log2 fold change was inactive: 0.03.

As for TRPT1 isoform 4 (UniProt Q86TN4), the log2 fold change was inactive: 0.025.

In the case of TTC38 (UniProt Q5R3I4), the log2 fold change was inactive: 0.02.

Regarding TSPYL1 (UniProt Q9H0U9), the log2 fold change was inactive: -0.053.

TRAPPC2 isoform 3 (UniProt P0DI81): the log2 fold change was inactive: 0.009.

For TRAPPC11 (UniProt Q7Z392), the log2 fold change is inactive: -0.01.

On to TSR2 (UniProt Q969E8), for which the log2 fold change is inactive: 0.003.

For the target TRMT1 (UniProt Q9NXH9), the log2 fold change was inactive: -0.021.

With TTLL12 (UniProt Q14166), the log2 fold change was inactive: 0.015.

Turning to TTC12 isoform 2 (UniProt Q9H892), the log2 fold change was inactive: -0.128.

For the target TRIM58 (UniProt Q8NG06), the log2 fold change is inactive: -0.01.

Regarding TTC4 (UniProt O95801), the log2 fold change was inactive: -0.04.

Take TRIM56 (UniProt Q9BRZ2): the log2 fold change was inactive: 0.033.

On to TRIP11 (UniProt Q15643), for which the log2 fold change was inactive: 0.042.

As for TRIM24 (UniProt O15164), the log2 fold change is inactive: -0.051.

Regarding TRIAP1 (UniProt O43715), the log2 fold change was inactive: 0.033.

As for TSC22D2 (UniProt O75157), the log2 fold change is inactive: 0.038.

TSEN15, A0A2U3TZM3: the log2 fold change was inactive: 0.121.

Consider TRMT5 (UniProt Q32P41), for which the log2 fold change was inactive: 0.018.

Regarding TRAPPC10 (UniProt P48553), the log2 fold change was inactive: 0.008.

On to TRIT1 (UniProt Q9H3H1), for which the log2 fold change was inactive: 0.047.

As for TTC9C (UniProt Q8N5M4), the log2 fold change was inactive: -0.035.

Take TRIP12 isoform 2 (UniProt Q14669): the log2 fold change was inactive: -0.019.

In the case of TRAPPC6B (UniProt Q86SZ2), the log2 fold change is inactive: 0.018.

For TTI2 (UniProt Q6NXR4), the log2 fold change is inactive: 0.022.

For the target TSPYL2 (UniProt Q9H2G4), the log2 fold change was inactive: 0.024.

In the case of TTC26, the log2 fold change was inactive: 0.197.

As to TRAPPC12 (UniProt Q8WVT3), the log2 fold change was inactive: -0.007.

For TSNAX (UniProt Q99598), the log2 fold change was inactive: -0.006.

In the case of TRIM21 (UniProt P19474), the log2 fold change is inactive: -0.022.

With TRAPPC13 isoform 4 (UniProt A5PLN9), the log2 fold change is inactive: -0.024.

For TRAPPC9 isoform 2 (UniProt Q96Q05), the log2 fold change was inactive: 0.034.

Consider TRIP10 isoform 2 (UniProt Q15642), for which the log2 fold change is inactive: 0.101.

Regarding TRNAU1AP (UniProt Q9NX07), the log2 fold change is inactive: -0.145.

Regarding TRMT112 (UniProt Q9UI30), the log2 fold change is inactive: 0.051.

Compound in another assay: Cc1nc(Nc2n[nH]c3c2CN(C(=O)N[C@H](CN(C)C)c2ccccc2)C3(C)C)c2sccc2n1
The assay is described as above. The method, boiled down: as §1
TRIM32 (UniProt Q13049): the log2 fold change was inactive: 0.036.

Take TRIM28 (UniProt Q13263): the log2 fold change was inactive: -0.021.

Turning to TST (UniProt Q16762), the log2 fold change is inactive: 0.007.

For TRMT1L (UniProt Q7Z2T5), the log2 fold change was inactive: 0.002.

As for TRUB1 (UniProt Q8WWH5), the log2 fold change is inactive: -0.042.

On to TTC37 (UniProt Q6PGP7), for which the log2 fold change was inactive: -0.001.

For the target TRPT1 isoform 4 (UniProt Q86TN4), the log2 fold change was inactive: 0.24.

As to TTC38 (UniProt Q5R3I4), the log2 fold change was inactive: 0.016.

For TSPYL1 (UniProt Q9H0U9), the log2 fold change is inactive: -0.003.

TRAPPC2 isoform 3 (UniProt P0DI81): the log2 fold change is inactive: 0.033.

For the target TRAPPC11 (UniProt Q7Z392), the log2 fold change is inactive: 0.054.

Regarding TSR2 (UniProt Q969E8), the log2 fold change is inactive: 0.033.

For TRMT1 (UniProt Q9NXH9), the log2 fold change was inactive: -0.002.

Turning to TTLL12 (UniProt Q14166), the log2 fold change is inactive: -0.012.

Consider TTC12 isoform 2 (UniProt Q9H892), for which the log2 fold change was inactive: -0.073.

Take TRIM58 (UniProt Q8NG06): the log2 fold change was inactive: 0.065.

For the target TTC4 (UniProt O95801), the log2 fold change was inactive: -0.034.

On to TRIM56 (UniProt Q9BRZ2), for which the log2 fold change was inactive: 0.031.

For the target TRIP11 (UniProt Q15643), the log2 fold change was inactive: -0.019.

As to TRIM24 (UniProt O15164), the log2 fold change is inactive: -0.015.

On to TRIAP1 (UniProt O43715), for which the log2 fold change is inactive: 0.02.

With TSC22D2 (UniProt O75157), the log2 fold change is inactive: -0.008.

For the target TSEN15, A0A2U3TZM3, the log2 fold change is inactive: 0.088.

For the target TRMT5 (UniProt Q32P41), the log2 fold change is inactive: 0.041.

As for TRAPPC10 (UniProt P48553), the log2 fold change was inactive: 0.

On to TRIT1 (UniProt Q9H3H1), for which the log2 fold change is inactive: -0.062.

Turning to TTC9C (UniProt Q8N5M4), the log2 fold change is inactive: 0.041.

Take TRIP12 isoform 2 (UniProt Q14669): the log2 fold change is inactive: 0.011.

Take TRAPPC6B (UniProt Q86SZ2): the log2 fold change is inactive: 0.055.

Take TTI2 (UniProt Q6NXR4): the log2 fold change is inactive: 0.029.

Take TSPYL2 (UniProt Q9H2G4): the log2 fold change is inactive: 0.015.

Turning to TTC26, the log2 fold change is inactive: -0.075.

As for TRAPPC12 (UniProt Q8WVT3), the log2 fold change is inactive: 0.025.

On to TSNAX (UniProt Q99598), for which the log2 fold change is inactive: 0.02.

TRIM21 (UniProt P19474): the log2 fold change was inactive: 0.079.

Regarding TRAPPC13 isoform 4 (UniProt A5PLN9), the log2 fold change is inactive: 0.021.

As to TRAPPC9 isoform 2 (UniProt Q96Q05), the log2 fold change is inactive: 0.005.

Regarding TRIP10 isoform 2 (UniProt Q15642), the log2 fold change was inactive: -0.023.

For the target TRNAU1AP (UniProt Q9NX07), the log2 fold change was inactive: 0.016.

In the case of TRMT112 (UniProt Q9UI30), the log2 fold change was inactive: -0.006.
